Measured values published in the supplement of paper PMC5949888.
Most values lie at the floor of the assay. Slopes are relative: functional sequences can read slightly below zero.

System: Saccharomyces cerevisiae PS128 hsf1 delta, HSF1(1-493) fusion
Experiment: growth estimate (transactivation domain function in HSF1 fusion, heat-shock survival) (a.u. (slope of normalised read count over time)); higher = stronger growth at 37°C, i.e. more transactivation activity
Conditions: library: random library

Substance | growth estimate
WARYLLRAIGLVAKVT | < -0.25
YGVGSDRGLRCRPSASS | < -0.25
RIIASVRNCHLVAPYASNC | < -0.25
TAGSAVLWHSYRVW | < -0.25
HSANYAGRHRDPST | < -0.25
PRRGFSIHMRDVWECFRRGL | < -0.25
ADF | < -0.25
HVKALSKAMAAMH | < -0.25
ILLPSLRGWTMSPRGAPPGG | < -0.25
SGST | < -0.25
RLSTNDVRSQSKRRVKVKIG | -0.245
QENSRSLSTEVCGDILGVAS | < -0.25
AAPIIGIQGAPIVDASSLNS | < -0.25
GRRRDRAARSIGWWWGEPLN | < -0.25
LNAMEGTWLAGYQTTVNPFR | -0.246
LVFRVVGAFSRAGFVVAHRY | < -0.25
SGNCLLERSRVRRGSMIQIV | < -0.25
ILGSYVHVGLTEALA | < -0.25
PFS | < -0.25
PTRVDGPS | < -0.25
HCLLRGSWGLDHSGTIRFC | < -0.25
SYMSE | < -0.25
LTSMARVRQ | < -0.25

Substance | growth estimate
PALPAQ | < -0.25
SNLPEVYRTFFKHRSCGCTT | < -0.25
EFRSSSVHEAQQ | < -0.25
RDNWNR | < -0.25
TVVERWECGPNFGCVVGYFS | < -0.25
YRCRSCRVKGEFP | < -0.25
TLSGEGSPNVSAHGAVRQCG | < -0.25
RIRTPQGNRTRPKA | < -0.25
LGT | < -0.25
DLDVSKGSGIFGNSR | < -0.25
HTTLDFKLGGLVRSGFDCGS | < -0.25
AWLGWQDGYMDTHQRGVNTG | -0.246
ARFSILCKGSNHVEKGFRSD | < -0.25
YSTHRRSR | -0.0135
IGLGGI | < -0.25
RND | < -0.25
QKDN | < -0.25
GSDSADFETAQKGRMQTSGY | < -0.25
VLGWPPLLLRAVPHWMDPSG | < -0.25
NFY | < -0.25
KNLKLSCRLGMAVKR | < -0.25
GHPAHETDW | < -0.25
TVGLTKRRRV | < -0.25

Substance | growth estimate
TGTVRPG | < -0.25
TCLGRPPMTYVLATGSEWNR | < -0.25
VAFTAG | < -0.25
LVAMCLRGWCSPRNQ | < -0.25
TSKPTFFQWS | < -0.25
FAGSVLLFYSRYIGFFQPSS | < -0.25
SRPNSAVR | < -0.25
ARLIGTRALRLWMIRI | < -0.25
RSTWRAEKESTMQE | < -0.25
ESTLTREMAPGGRPRLVVLL | < -0.25
GNPVLGCRLT | < -0.25
RFALYGCLYALSN | < -0.25
SGSRLT | < -0.25
GIILRRKGHDCESVRWRPCH | < -0.25
TRAPLCPEYHG | < -0.25
RSMDCVILWPES | 0.781
LGE | < -0.25
DLQVTYLSTNLS | -0.237
QRTTKFLRIQGVSSGSSCLN | < -0.25
VESVYVFSSGSMVMMPLGHI | < -0.25
PAIRDGTIFVCSDIVGIELV | -0.235
SQRLAEALERTLVRGYRKEP | < -0.25
PRRICNK | < -0.25

Given in markdown: part of the list above

| Substance | growth estimate |
| --- | --- |
| PALPAQ | < -0.25 |
| SNLPEVYRTFFKHRSCGCTT | < -0.25 |
| EFRSSSVHEAQQ | < -0.25 |
| RDNWNR | < -0.25 |
| TVVERWECGPNFGCVVGYFS | < -0.25 |
| YRCRSCRVKGEFP | < -0.25 |
| TLSGEGSPNVSAHGAVRQCG | < -0.25 |
| RIRTPQGNRTRPKA | < -0.25 |
| LGT | < -0.25 |
| DLDVSKGSGIFGNSR | < -0.25 |
| HTTLDFKLGGLVRSGFDCGS | < -0.25 |
| AWLGWQDGYMDTHQRGVNTG | -0.246 |
| ARFSILCKGSNHVEKGFRSD | < -0.25 |
| YSTHRRSR | -0.0135 |
| IGLGGI | < -0.25 |
| RND | < -0.25 |
| QKDN | < -0.25 |
| GSDSADFETAQKGRMQTSGY | < -0.25 |
| VLGWPPLLLRAVPHWMDPSG | < -0.25 |
| NFY | < -0.25 |
| KNLKLSCRLGMAVKR | < -0.25 |
| GHPAHETDW | < -0.25 |
| TVGLTKRRRV | < -0.25 |
| TGTVRPG | < -0.25 |
| TCLGRPPMTYVLATGSEWNR | < -0.25 |
| VAFTAG | < -0.25 |
| LVAMCLRGWCSPRNQ | < -0.25 |
| TSKPTFFQWS | < -0.25 |
| FAGSVLLFYSRYIGFFQPSS | < -0.25 |
| SRPNSAVR | < -0.25 |
| ARLIGTRALRLWMIRI | < -0.25 |
| RSTWRAEKESTMQE | < -0.25 |
| ESTLTREMAPGGRPRLVVLL | < -0.25 |
| GNPVLGCRLT | < -0.25 |
| RFALYGCLYALSN | < -0.25 |
| SGSRLT | < -0.25 |

The results go on:

Substance | growth estimate
LQVPPEPVLDARSSLLGLVQ | < -0.25
RTHLMSGYQIRYCPHNEVAP | -0.228
DSRGCLSRESRQVQNGVSRL | -0.243
SKGTRISTSKRPGTEAPAFH | < -0.25
MIAAAQWVVVVTGFVGIGT | < -0.25
LARTRAYGHLLRTVN | < -0.25
RRTISSWCLKVRRLRGLLWN | -0.172
DRITC | < -0.25
TVAVNCLDVMVALFMVEPRS | < -0.25
QSVRSCMK | < -0.25
DVPRRQATNSPGKIKAGTYT | < -0.25
PSVEKSWSTCVHGSPPRLSD | < -0.25
PTTIGDSTH | < -0.25
VIYKG | < -0.25
PERH | < -0.25
LTTPISCESDGDI | < -0.25
VAFDRCMPQR | < -0.25
VTRATHRVADRIRSLLTRMV | < -0.25
AREQYAYVRFTPH | -0.231
VRSPRTDMRSSRRKATLWHI | < -0.25
SWCTGDRHGRPR | < -0.25
QDGGS | < -0.25
GPLAGGCGVLHSSNRATGCS | < -0.25

Substance | growth estimate
TSGRILSFKQYMSVDHVYP | < -0.25
AAVGDLGEYHGSSYAYADLP | < -0.25
RLRI | < -0.25
CRDGMHPSVVVMALRKLVHL | < -0.25
GSPEDENGYG | < -0.25
KESY | < -0.25
TKFI | < -0.25
VVEPCKRPARSR | < -0.25
PNQVIESISALVNTKIKWSI | < -0.25
LYYQSGHPGQKCPG | < -0.25
LPCTRYETI | < -0.25
HSRSAHYLDRMRRGVRPG | < -0.25
DLQSVGPMIPARCPIIRLPS | < -0.25
HVMAVVAGEVCRGGYFKYSL | < -0.25
STGRFGVPPQFIKSNA | < -0.25
TFKVRKAGEDRYL | < -0.25
TKPRRWVAVQTSLLHVKCGR | < -0.25
KFGHKGGLTSVGNRAVARRR | < -0.25
VPRA | < -0.25
VSTIDPMRPQPGFSGARRVV | < -0.25
RVVGTGDAPVGRSHRAGECY | < -0.25
YNRCPRLAVESRELFSLGSV | < -0.25
SDVKVSQATQVRR | < -0.25

Substance | growth estimate
CSLARRVIQSIVPYITYLKC | < -0.25
LARLS | < -0.25
RSKVALFRAKNDCVLVAQDD | < -0.25
LLVQFPASGV | < -0.25
KLIFDRRLSCRSRLNSD | < -0.25
LCSMQACSAR | < -0.25
AHGGA | < -0.25
LPNLD | < -0.25
SRIPPRQGKSCQPILRL | < -0.25
YCISTGVPWRFLGRSHGVMR | < -0.25
IHQGLREKHVQVRAAILCGR | < -0.25
GNVSDGVI | -0.151
SLRSLGGQGDTVSYGG | < -0.25
HSQASNVLHPRARLLTPH | < -0.25
YEEGRCRAKRWYKLASWPSS | < -0.25
SGRQ | < -0.25
HQMPCSSDLGVERFWSAVGE | < -0.25
RHQYVDWHRCVKTCPSIRHA | < -0.25
AHTNGQRWTNHSLHEQRHKF | < -0.25
VSKEQCSAPRECTAKREMFN | < -0.25
KNGTVIET | < -0.25
LTKRKGDLFQPRDERSAIRE | < -0.25
LVNGVVSHPRRVKVKAPFPD | < -0.25

Substance | growth estimate
TELTRAKGYVQEGVHLP | -0.0851
YKPADRRRLANRVRAPCAWE | < -0.25
SVRGGYLIFTNQARH | < -0.25
GKGPVLMDVRKVLCLLSAVA | < -0.25
PSVRQNQTQCSTLVLVSIPE | < -0.25
NFQDS | 0.0543
AKVFQARVDGALSWFAMYWQ | < -0.25
TNSTSWPIRAVPRAGPWHGG | < -0.25
RVRPRDHGGIRHLDLRNART | < -0.25
HLFRHLMKQATICAYCQRRG | < -0.25
RQAFGRDFAISRILGGFPSM | < -0.25
SAVNGGSRTAANHKGH | < -0.25
ATSATIV | < -0.25
RTSRLRTALRRRGSRLTDSW | < -0.25
NGKCWA | < -0.25
GDPKSTKSGGHGEMVSSSAH | < -0.25
GLHRVIQKTVR | < -0.25
RSTAKSPS | < -0.25
KKRQELRHTGCILVMGDPLQ | < -0.25
SGCGIPPRRPTVLEARMLSF | < -0.25
ARMPE | < -0.25
